# Some of the results follow.
# Amino acid sequences for entries named in this document (tags omitted).
# UniProt Q0JBA9, entry or part of it: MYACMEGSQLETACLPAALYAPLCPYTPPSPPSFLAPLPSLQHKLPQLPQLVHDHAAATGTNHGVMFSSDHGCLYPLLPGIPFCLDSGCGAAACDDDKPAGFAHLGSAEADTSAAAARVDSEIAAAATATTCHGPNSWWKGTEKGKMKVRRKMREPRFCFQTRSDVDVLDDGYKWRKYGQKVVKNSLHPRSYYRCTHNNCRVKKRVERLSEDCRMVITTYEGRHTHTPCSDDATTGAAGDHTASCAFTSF
# Molecular target: OsWRKY34 (Oryza sativa, UniProt Q0JBA9 1-250)
# Assay: protein-binding microarray (RPBM); PBS, 2% BSA, 51.3 ng/ul salmon testes DNA, 50 uM zinc acetate, 200 nM TF, 25 C, 1 h; high values mean tight binding
# Details: protein: recombinant; tags: N-terminal polyhistidine and DsRed monomer fusion (pET32a); label: CyDye5-dUTP incorporated in the synthesized complementary strand; 3' TTTTT single-stranded linker to array surface; dsDNA, one strand shown
# Outline: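 The binding signal is fluorescence intensity per feature, in arbitrary units, read on an Axon 4000B scanner. Polyhistidine- and DsRed-tagged transcription factors (N-terminal fusions) from E. coli BL21-CodonPlus were purified on Ni–NTA and applied at 200 nM for 1 h at 25 °C to a double-stranded, BSA-blocked custom Agilent array in buffer with 50 µM zinc acetate.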
row,Sequence,binding signal
1,ATTCCAGTGTATACGCCTTCGCGCTCCATTTACGATTTCACGGAGTCACCTAGTGCAG,8300 fluorescence intensity (a.u.)
2,AGGAGTTGACGGCGAGGGGATCGAGAGGGAGGGAGGGATGCGGAGTCACCTAGTGCAG,9050 fluorescence intensity (a.u.)
3,TCGACTAACGTTTGATCATTCATTTTATTCAAAATTTTTGCGGAGTCACCTAGTGCAG,8340 fluorescence intensity (a.u.)
4,GGGTGGGCATGTAAGAATCTTGGCTCATGGAAGGAGAAGACGGAGTCACCTAGTGCAG,10200 fluorescence intensity (a.u.)
5,AACCACTCGCTTCCAAACAATCCAAACCTTCCATGCCATTCGGAGTCACCTAGTGCAG,64700 fluorescence intensity (a.u.)
6,TTATTCGGGGTGCATATACTAGGTTAGCTACAGTTGTCAGCGGAGTCACCTAGTGCAG,8500 fluorescence intensity (a.u.)
7,GTCTTTGGAGCGCCGCACAGCAAAGAAAAATATCCAGCGTCGGAGTCACCTAGTGCAG,9260 fluorescence intensity (a.u.)
8,TGTTGTGAATTTTTATTCGCTTTTTATTCGGTTATGCATTCGGAGTCACCTAGTGCAG,9450 fluorescence intensity (a.u.)
9,ATTGCTGATTGTCTGTTCTTTTACTTGACATAACCTGAATCGGAGTCACCTAGTGCAG,8620 fluorescence intensity (a.u.)
10,TAAGTAGGAGAGGGTTGTGAATTGGGTTGATGGGAGGTGTCGGAGTCACCTAGTGCAG,8760 fluorescence intensity (a.u.)
11,CGTGTCGTGGAAGGTCATTATTGGTTGGGATAGCGTAGCGCGGAGTCACCTAGTGCAG,9440 fluorescence intensity (a.u.)
12,CGCACCTACGTGATATCCTAACTTCTTCTCATTCTTATGGCGGAGTCACCTAGTGCAG,8350 fluorescence intensity (a.u.)
13,AGTATATCATCTGCCTGGACTTCTTTAGATTGTCCTTACACGGAGTCACCTAGTGCAG,8240 fluorescence intensity (a.u.)
14,AGATCACCCTGCCGATAGCCACTGCGATGTTCGTTCTTGTCGGAGTCACCTAGTGCAG,9750 fluorescence intensity (a.u.)
15,TCCTCTCCCACCAATCCTTTGATCCATTCATCCCAACTTCCGGAGTCACCTAGTGCAG,9340 fluorescence intensity (a.u.)
16,CGAAGCCAACTGCAGCATCACACTACCTCACCCACTACCCCGGAGTCACCTAGTGCAG,8230 fluorescence intensity (a.u.)
17,GTAGGAAAGTTTGTTTGTGTGTGTAGAAAAGTTTTGATGTCGGAGTCACCTAGTGCAG,21000 fluorescence intensity (a.u.)
18,CCTTATCCACTTGATGTTACTGCTACTCGTCACCAGATGTCGGAGTCACCTAGTGCAG,8330 fluorescence intensity (a.u.)
19,TCTGTGGTGATTTGTGCTGCGAGAGAAACTTCTTTGTCGACGGAGTCACCTAGTGCAG,8740 fluorescence intensity (a.u.)
20,AATATGGATTGATTATGGTTGTGTTTTAGATGCCTTTCCTCGGAGTCACCTAGTGCAG,8910 fluorescence intensity (a.u.)
21,ACATTACGTCTTAGAGTCCGTGCTGCAGCTGACTACATATCGGAGTCACCTAGTGCAG,8660 fluorescence intensity (a.u.)

# 6 neighbouring records already listed, for reference:
row,Sequence,binding signal
5,AACCACTCGCTTCCAAACAATCCAAACCTTCCATGCCATTCGGAGTCACCTAGTGCAG,64700 fluorescence intensity (a.u.)
6,TTATTCGGGGTGCATATACTAGGTTAGCTACAGTTGTCAGCGGAGTCACCTAGTGCAG,8500 fluorescence intensity (a.u.)
7,GTCTTTGGAGCGCCGCACAGCAAAGAAAAATATCCAGCGTCGGAGTCACCTAGTGCAG,9260 fluorescence intensity (a.u.)
8,TGTTGTGAATTTTTATTCGCTTTTTATTCGGTTATGCATTCGGAGTCACCTAGTGCAG,9450 fluorescence intensity (a.u.)
9,ATTGCTGATTGTCTGTTCTTTTACTTGACATAACCTGAATCGGAGTCACCTAGTGCAG,8620 fluorescence intensity (a.u.)
10,TAAGTAGGAGAGGGTTGTGAATTGGGTTGATGGGAGGTGTCGGAGTCACCTAGTGCAG,8760 fluorescence intensity (a.u.)

# The listing continues:

row,Sequence,binding signal
1,ATTTAATTCGGTCACCACGAATACCGCATCAATATTGTGCCGGAGTCACCTAGTGCAG,8190 fluorescence intensity (a.u.)
2,GTAACCCTAATTTCAGAAACTAAACACAGTCACGTAAGAACGGAGTCACCTAGTGCAG,65500 fluorescence intensity (a.u.)
3,TGTTGAATTCTGCTTCACTTTTCAGTCTTAGTTCTTAGAACGGAGTCACCTAGTGCAG,8040 fluorescence intensity (a.u.)
4,ACGCGATATCACACTCACACATCCACGAATACATCGCCTACGGAGTCACCTAGTGCAG,10500 fluorescence intensity (a.u.)
5,GCCTCGTTCCCGCGGACTCCGACCTCTCCCGAATCCCTTTCGGAGTCACCTAGTGCAG,8280 fluorescence intensity (a.u.)
6,ATAATTCGTCGTCCATTAGCTCAGCAATTCTCCTTCTCGTCGGAGTCACCTAGTGCAG,10200 fluorescence intensity (a.u.)
7,CCATTTCATATTATAAGTCGTTTTACTTTTTTCTTAATAACGGAGTCACCTAGTGCAG,8480 fluorescence intensity (a.u.)
8,CCCATCACATCACACCGGCCCGCTTCTCTCTCGCGCGCGCCGGAGTCACCTAGTGCAG,11100 fluorescence intensity (a.u.)
9,GTCTCTGTCTTGATCTCTCAATCTCTCTTCTGACCGTCCTCGGAGTCACCTAGTGCAG,8550 fluorescence intensity (a.u.)
10,TCGCACACGTCGCCGCCGCCGTAATCGCATCTGCCCATGGCGGAGTCACCTAGTGCAG,8720 fluorescence intensity (a.u.)
11,GGATAATTTTGCTTTCCTTGAGGTTCATTCCAATTATTTTCGGAGTCACCTAGTGCAG,9470 fluorescence intensity (a.u.)
12,CTCACTGATGACTACTACTATTCATTTAATCATTTATACCCGGAGTCACCTAGTGCAG,9360 fluorescence intensity (a.u.)
13,TAGCTGTTTGGTCTTGCTGGTGGTGGTGGGTGAGTGTTGGCGGAGTCACCTAGTGCAG,11200 fluorescence intensity (a.u.)
14,CTCTCTTTCTCTTCCATTTCTTGAAACTTGTATGGAGGTTCGGAGTCACCTAGTGCAG,9410 fluorescence intensity (a.u.)
15,GATCGTCTCCAACGCACACTGATCTCCCCTGCGGCCTCTCCGGAGTCACCTAGTGCAG,9560 fluorescence intensity (a.u.)
16,GGTTGGTGACTCACCATCTTGGCGCCCGTCCCGTCTCGTCCGGAGTCACCTAGTGCAG,10200 fluorescence intensity (a.u.)
17,TGGGACTACTTATACATGTATTGATAAATTTTCTTTCACACGGAGTCACCTAGTGCAG,10400 fluorescence intensity (a.u.)
18,CATCCAGCCTCGACGTGCCGGCGGCGGTGGGTGGCGGGGCCGGAGTCACCTAGTGCAG,8680 fluorescence intensity (a.u.)
19,ATTTGTCGATGTTACAGGGCGAAAATTTTGGGGTGGGATCCGGAGTCACCTAGTGCAG,14800 fluorescence intensity (a.u.)
20,TCAGGGGCTAGCTCCTTTGCGCTGCGGCTTTGACCGCGGTCGGAGTCACCTAGTGCAG,9050 fluorescence intensity (a.u.)
21,CTTCTGAATCTGCTGATCGCTTAATGCGCCGTGTAAAGACCGGAGTCACCTAGTGCAG,8570 fluorescence intensity (a.u.)

row,Sequence,binding signal
1,GTCTTCCCAAAATCTTATTTCTATTCCATTACCAGGTTTACGGAGTCACCTAGTGCAG,9280 fluorescence intensity (a.u.)
2,TTACACTGTTCATGTCTCACGTTTGACCGTTCGTTTTATTCGGAGTCACCTAGTGCAG,16400 fluorescence intensity (a.u.)
3,CCCGGGAACACGCTCCAGAGATGCTGACTATCTTTCCCTTCGGAGTCACCTAGTGCAG,8070 fluorescence intensity (a.u.)
4,ATTCCTCCAGCCTCTCTGTTCGTGCGTGCCGTCGCCGTCGCGGAGTCACCTAGTGCAG,9310 fluorescence intensity (a.u.)
5,CGTCATGGTTCAGCAATTTCAGGCGTCTTCTTTCAGTGTCCGGAGTCACCTAGTGCAG,8690 fluorescence intensity (a.u.)
6,GTCATACCACCTTACTTTTTACGTTTGAATCACCATTCTACGGAGTCACCTAGTGCAG,10900 fluorescence intensity (a.u.)
7,TCTATTGTCTTCGATGTGGAGTTGTGTTCGAACTTTGAACCGGAGTCACCTAGTGCAG,8240 fluorescence intensity (a.u.)
8,TGTGTTGGATCGGTTGGACGCGCTCACTCGGTTTGGTTTGCGGAGTCACCTAGTGCAG,9730 fluorescence intensity (a.u.)
9,CTCTCTCATCTCGCATTGGTTATTTATTCGCCTCCTCCGCCGGAGTCACCTAGTGCAG,11700 fluorescence intensity (a.u.)
10,AGTACAGCAGTATCCCGTTTCGTTTGGGCTTTTGGTGGGGCGGAGTCACCTAGTGCAG,15800 fluorescence intensity (a.u.)
11,TCCATCACTAGCTATTTTGGTACTTTCATCTACTTATTACCGGAGTCACCTAGTGCAG,8340 fluorescence intensity (a.u.)
12,AATCCAGCTGCCGCGCGCGTCAATCACTCTCGTCCACACCCGGAGTCACCTAGTGCAG,8940 fluorescence intensity (a.u.)
13,AACGGCTATCGGCGGGGTGGGGCAGCGACCATCGAGCTTCCGGAGTCACCTAGTGCAG,11900 fluorescence intensity (a.u.)
14,GCATTACCTCGCGATCTCCTTCCCAATTTTGGTCTCTTCCCGGAGTCACCTAGTGCAG,14200 fluorescence intensity (a.u.)
15,CACTACTACTGCCACAAACGCCACACACGATATAGCTATACGGAGTCACCTAGTGCAG,8390 fluorescence intensity (a.u.)
16,ACATCAGATACATTTCGCATCTTTATTTTTCTCACCATTTCGGAGTCACCTAGTGCAG,8680 fluorescence intensity (a.u.)
17,CCTGCCCGTCTCTCGCAGTCTCGCATTTCTCTCTTTTTCTCGGAGTCACCTAGTGCAG,12100 fluorescence intensity (a.u.)
18,TCCCCGGGCCTCTCTCTGATCCCGTATTCACCGGTGACCACGGAGTCACCTAGTGCAG,12200 fluorescence intensity (a.u.)
19,ACCTTCCGGATTCCGGCCATCTTCGTTTCTCGTCTTCGCCCGGAGTCACCTAGTGCAG,9180 fluorescence intensity (a.u.)
20,GCCTCATCGTCCTCCGATTCCATTCCGCCATGGTCGACGACGGAGTCACCTAGTGCAG,8220 fluorescence intensity (a.u.)
21,ACACACACACACAAACACTGCAAGGTTTGTTTTCTTATCACGGAGTCACCTAGTGCAG,8680 fluorescence intensity (a.u.)

# Laid out differently: results already given
row	Sequence	binding signal
8	CCCATCACATCACACCGGCCCGCTTCTCTCTCGCGCGCGCCGGAGTCACCTAGTGCAG	11100 fluorescence intensity (a.u.)
14	CTCTCTTTCTCTTCCATTTCTTGAAACTTGTATGGAGGTTCGGAGTCACCTAGTGCAG	9410 fluorescence intensity (a.u.)

# The list goes on:

row,Sequence,binding signal
1,GATGTGGGCTAGCTTATGGTTTATTTTCCTGCTAAAATTGCGGAGTCACCTAGTGCAG,8830 fluorescence intensity (a.u.)
2,CCAACCCGCCGCTGGCTCGCTTTATATCCCGCGTGAGCTCCGGAGTCACCTAGTGCAG,11700 fluorescence intensity (a.u.)
3,TCTCTTCCGAGTTCCGACTTTCGAAATTTCCAAAACCCTCCGGAGTCACCTAGTGCAG,8230 fluorescence intensity (a.u.)
4,GCAAGGTTTCCGTTTCTGCCCACGCCAAAGCGGCCAACAACGGAGTCACCTAGTGCAG,9220 fluorescence intensity (a.u.)
5,CAATATTAATAATCGGTCCCACTTATCATACACACGTTTTCGGAGTCACCTAGTGCAG,9260 fluorescence intensity (a.u.)
6,AATCTTCTTTGTATTTTATTGCTCTTAATTTAATTATGCTCGGAGTCACCTAGTGCAG,9530 fluorescence intensity (a.u.)
7,CGGAGTTTTCTTTGTTTTTTCTTCGTTTTCGAAATTTCAGCGGAGTCACCTAGTGCAG,9080 fluorescence intensity (a.u.)
8,GTGGAGGGGCGGCGTTGGGCAGAGGGGCGGCACGGGTGAACGGAGTCACCTAGTGCAG,12800 fluorescence intensity (a.u.)
9,AAATACTTTGTACTAATGTAAGTTTATGTTCCTTTTATTCCGGAGTCACCTAGTGCAG,8320 fluorescence intensity (a.u.)
10,GCCTTGCTCTCTCACCGACGAGGTCACCGCCGCTTGTCTCCGGAGTCACCTAGTGCAG,8540 fluorescence intensity (a.u.)
11,TTTCTTTTATTTTGTCTCGTTTCATGCAGGATGGCTGGACCGGAGTCACCTAGTGCAG,9510 fluorescence intensity (a.u.)
12,AGGAAAACACTTAGATGGGCCGGATTACTTATCGAAATTTCGGAGTCACCTAGTGCAG,8360 fluorescence intensity (a.u.)
13,GTCACACATCCACGTCGCCGGCCTGCATTCGCGCCGCCCCCGGAGTCACCTAGTGCAG,12100 fluorescence intensity (a.u.)
14,CTCTATGTGATGGATTATTCTTTGTTGGCAAATTGTCATTCGGAGTCACCTAGTGCAG,9260 fluorescence intensity (a.u.)
15,CCAACTGGCCAAATTCCGGTTGCAACGCACGCATTTCCACCGGAGTCACCTAGTGCAG,10100 fluorescence intensity (a.u.)
16,CGTCGCCTCACCTCGCGCCTCCGCTACTACTGCTTGTCTGCGGAGTCACCTAGTGCAG,8930 fluorescence intensity (a.u.)
17,GGGTTTGTTATGCTGCATGTCGTCGCACGCCGAGGTGGTCCGGAGTCACCTAGTGCAG,10100 fluorescence intensity (a.u.)
18,TCTGTGGGAGGAGAGGCGGGCCTCACGGGTGCGGCGGGTGCGGAGTCACCTAGTGCAG,8850 fluorescence intensity (a.u.)
19,GCTGTTCCTTCATTTCTCACCTAACCAAAGGACCTCATCGCGGAGTCACCTAGTGCAG,8570 fluorescence intensity (a.u.)
20,CGCAGTTGTGCATCAGGTTCTTCACTCCATATTCTCATCGCGGAGTCACCTAGTGCAG,8760 fluorescence intensity (a.u.)
21,TGTTGTTTTTTTGCTAATATTTTTGTTGTTAATTTACTATCGGAGTCACCTAGTGCAG,10200 fluorescence intensity (a.u.)

# Source: publication PMC7819943, “Rice protein-binding microarrays: a tool to detect cis-acting elements near promoter regions in rice”
